Measured values reported in US20200297798A1, “KEY AMINO ACID SITES […] EXPORT OF NUC[…] INFLUENZA A AND B VIRUSES AND USE THEREOF AS ANTI-INFLUENZA VIRUS DRUG TARGETS” (INSTITUTE OF MICROBIOLOGY, CHINESE ACADEMY OF SCIENCES, priority 2017, published 2020).

COc1ccc2cc(C(C)C(=O)O)ccc2c1 (stereo not drawn) [naproxen, (+) α-methyl-6-methoxy-2-naphthaleneacetic acid]
cell localization of BNP (nuclear export of BNP): localized mainly in the nucleus
cell localization of ANP (nuclear export of ANP): localized mainly in the nucleus
